Test results taken from PMC11277477.
No constants are given. Whether binding was seen depends on the method and setting. In cells and extracts the contact can be indirect. A yes stands for co-enrichment or nearness to the bait. Other partners may have been found. Sequences can lack the tags named with a protein.

T1: GST-Adh recombinant protein (E. histolytica)
T1 sequence: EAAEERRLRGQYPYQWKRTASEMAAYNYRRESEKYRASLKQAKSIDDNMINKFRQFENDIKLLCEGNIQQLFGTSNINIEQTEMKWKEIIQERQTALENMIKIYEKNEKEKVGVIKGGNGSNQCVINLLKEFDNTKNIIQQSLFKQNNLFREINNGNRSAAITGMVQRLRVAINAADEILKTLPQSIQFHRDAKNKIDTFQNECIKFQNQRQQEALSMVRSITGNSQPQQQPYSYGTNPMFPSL

B1: Fructose-1,6-bisphosphate aldolase (enzyme, UniProt C4LXD7 1-330)
chain: MAAKTVNYKELGLCNHKEMFEHAIKGGFAVPGFNFNNLEQMQAIIQACTEAKSPVILQVSKGAREYANATLLRNLAKGAVEYSKEIDPEHKGVPISLNLDHGANFQICKECVDNGFSNVMIDGSALPYEENVKLTKQVVEYAHKFGVTVEGELGVLSGVEDDVAAAEHVFTDPKDVEAFVKDTGVDALAISIGTSHGAYKFKPGMHPRIRLDILHEVEKRIPGFPIVLHGSSSVPQEWVAVINQYGGKLESAIGIPEDQIREAVKSAVCKVNIDSDGRLAMTGSIRRYLAEHPKDFDPRQYLGPARQALKELYLHKVSDKVLNSAGKSWY
B2: 60S ribosomal protein L14 (protein, UniProt C4LTQ0 1-121)
chain: MKTGPFASKLAVIVEILDHNRVLVDGPQAITGVPRQVVNLNTISLTSFVVNKVTRGMTHKKLCLRFTQDAIIKRLNKTATGKAIEKRILREKMTDFDKFQVSIINRKINAAAKIAVARKAH
B3: Ribosomal protein L18a (protein, UniProt C4LXZ0 1-173)
chain: MKEYYITARCTDKAHNPNEIFRSRVFAPNYVVAKSKFWMMLKKQHKVKKINAELLQCQPIFEKNPTVVKNYQIFLRYVSAGGIHNITKQYRDVTRVGAVRQMYNDLASQYRTRQDKIQLISITTVGDKAVKNPVLHQFVGHHVKFPMVHCKPVIASKRFNLPIKAGKLTTKLC
B4: Pyruvate:ferredoxin oxidoreductase (enzyme, UniProt C4LTX6 1-1162)
chain: MQSVDGNQAAAYVSYALSDVSFIFPITPSSPMAENADVWSSQGRKNVFGQVVDVYEMESEAGASGAVHGGCAAGSLVSTYTCSQGLMLMIPNMIKIAGEHLPCVFHVTARALAGQALSIFGDHSDVMACRSTGFCLLSSHNVQQCHDLAIVAHLATLEASLPFMHFFDGFRTSHEIQKIHQLTYDQIKSLVDMKYVDRAHKRGLNPIHPSQRGTSQGPDVFFQAVEKSNADYLKVPEIVQKYMDKVGELTGRHYKIFEYYGAADAERVVVVMGAAVPVLEECVDYLMKSGEKVGVLSVHLYRPWSAKHFLEQLPKTVTKISVLDRTKEAGSFGEPLYLDVATTLLDAGKHIKCVGGRYGLGSKEFTPAMAKAVFDNLKNEEPKNHFTVGIEDDVTHMSLPIGENFNPIPEGTTQCMFWGLGSDGTVGANHDAIRIIGQNTDMYVQGYFSYDAHKSGGVTVSHLRFGQKPIKSQYLIQNADYTACHFPNYVKKYKLLDAAKPNSVFVLNCPWTGAELEAQLPGSLKRVIAEKQIKFYTIDAIKIGQEVKLGRRINMIMQTVFFKLANVIPFEKAIVLLKEAVQKTYGAKGPAIVKMNHDAIDKALDGLVEVKVPAEWANAPLETVTKIEAPEFVTDVLMPQLAMKGNELPVSKFAADGFMPMGTTKYEKRGIATKIPTWEASKCVQCNMCSLYCPHAAIRCFYLTPEESAKAPAEFVQIDGKAQQAGYKFRIQVSAMDCTGCEVCTTACPVKCLSMTPFEQVSEVESKNWEFAMTLSPKNSLSDRSNIKTTMIHQPYLEFSGACEGCNETALVKLITQLYGERTIIANATGCSSIWGATWGTNPYTVDGEGRGPAWGNSLFEDNAEYGFGMFKANEQRRLYLEQICKEAIAEGKLSNELKTLLEEWIAKKEDANESEKIYAAVKPLLAAEKDKSEVLGLIEQNSDMFVKISHWIVGGDGWAYDIGYNGVDHVLASGHNVNILVLDTEMYSNTGGQKSKATNLGAVVKFASSGCKRPKKDLGAIAMAYGDVYVASIALGANPAQAFKAFKEAESYNGVSLIIAYCPCKEQGVPLQKSIEEAKMAVNSGYWSLYRYDPRLVEQGKPGLQLDCSEVKGDLEAFLARENRFALLGRKDKETADKLHAQLKANIDKKLAHLKVVSKQA
B5: Malic enzyme (enzyme, UniProt A0A8U0WNY6 1-487)
chain: MAQLKADLSNLEECLPSTLSQEQRAVAKTQFYKELAEKVHKFYKGKIQIMPKCTLAGFNWFNAYYTPGVSRISTNIRDNNDSSLFYSLRGNFVGVVSDSTRVLGDGDVTPPGGLGVMEGKALLMKYLGGIDAVPICIDSKNKEGKNDPDAVIEFVQRIQHTFGAINLEDISQPNCYKILDVLRESCDIPVWHDDQQGTASVTLAGLLNALKLVKKDIHECRMVFIGAGSSNTTCLRLIVTAGADPKKIVMFDSKGSLHNGREDIKKDTRFYRKWEICETTNPSKFGSIAEACVGADVLISLSTPGPGVVKAEWIKSMGEKPIVFCCANPVPEIYPYEAKEAGAYIVATGRGDFPNQVNNSVGFPGILKGALIVRARKITDNMAIAASRALAEFAEKRGINPDNIIGTMDEPGIFPKEAADVAMQAIKDGVARVTDLTWQQVYDIAEHDIKEARESAQLLQDSKHIVDFPQETLNECLAYAINKVTGK
B6: Poly (ADP-ribose) glucohydrolase (enzyme, UniProt C4LY84 1-431)
chain: MENKIIQTSTLSIEKIRTAITKEFKTCQDVVEFFINQEEERTNKKINKGVGDGYEIALKSFYNKVHSLGVTKKSFEEYFQWFIGGLKNAMNKLINNNDGNLEKNQSTIYIPISKSGTPSTIQIKRWEIFGILACSFFNVQWDKKVERIGNLSFVYISTNSRISIQRLICIFAYFHVMIEMDEKTLQEIVTYERVIQKKPYDWEHNETPIKTYPFVSGGLEMSEMNVHVDFANKYLQIHKIVPSITQEELLFSVRPECLISLILFEVLLDNEAVLIKNTLHISLSEGYQQTFKWIGFCKNQILKQPNIILAIDSVINSCFGKENIDRDLNKCMIGFQCAGNKIATGQWGCGSFGNDQLLKMAQQYMVLSTLGLEASIHWMNFSRYNELNDYMEICKSKKMTVKDIYYILCSFDGDKNTFVDYFKQQVQSFHK
B7: 20 kDa antigen (protein, UniProt C4M6Z9 1-210)
chain: MRARMVGPGSSSSNYKSTTDPCRFMGCGPSSSTSSGYRKGGNAAGPMASKGTWAATTDIGKTAAVGADTYEAGYRKGGNAAGPMASKGTWAATTDIGITAGVGADTYEAGYRKGGNAAGPMASKGTWEATTDIGKTAAVGADTYEAGYRRGADAAGPMASKGTWAATTDSGITAPCSGTEPIPDSYEAAAVLAEQRKLEEEAANAAAEQQ

Molecular target: T1, GST-Adh recombinant protein (E. histolytica)
Assay: affinity purification with mass spectrometry; GST-tagged bait (or GST control) bound to glutathione-Sepharose (200 μg) incubated with total trophozoite lysate (2 mg), 4 h, 4 °C; SDS-PAGE, silver stain, bands cut, nano UPLC-QToF; hits with reliability above 95%; only the target purified

| Binder | binding |
| --- | --- |
| B1 | binds |
| B2 | binds |
| B3 | binds |
| B4 | binds |
| B5 | binds |
| B6 | binds |
| B7 | binds |
